Article PMC8905165
Results are given in words; binding and its absence hold for the method and conditions named. Some entries that bind do so weakly or less than the wild type.

Amino acid sequences for entries named in this document (tags omitted). Residues count along the entry.
UniProt Q02224, residues 1-483: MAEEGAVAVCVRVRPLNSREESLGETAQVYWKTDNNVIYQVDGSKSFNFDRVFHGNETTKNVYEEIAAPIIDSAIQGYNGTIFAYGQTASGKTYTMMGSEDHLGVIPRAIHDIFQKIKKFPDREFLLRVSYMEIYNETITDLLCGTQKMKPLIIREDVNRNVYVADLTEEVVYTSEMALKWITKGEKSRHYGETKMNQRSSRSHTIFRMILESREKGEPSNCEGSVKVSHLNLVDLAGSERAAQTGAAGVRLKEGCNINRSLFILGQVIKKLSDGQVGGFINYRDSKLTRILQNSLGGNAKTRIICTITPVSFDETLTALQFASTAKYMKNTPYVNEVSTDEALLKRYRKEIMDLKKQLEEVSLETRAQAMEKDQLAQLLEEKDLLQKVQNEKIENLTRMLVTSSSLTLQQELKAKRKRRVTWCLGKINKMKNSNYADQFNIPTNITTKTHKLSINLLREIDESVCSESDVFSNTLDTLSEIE

Biological target: CENP-E483-2mNeon (human) (UniProt Q02224)
Assay: native gel or EMSA; native PAGE of purified CENP-E483-2mNeon; monomer to dimer; both purified

For “CENP-E483-2mNeon (from UniProt Q02224 1-483) (domain or fragment)”, the binding was “binds weakly”.
